# Percent effect of library compounds

Source: ChEMBL document CHEMBL3988442, “University of Dundee, Small-Polar-MMV Screening Library” (2021).

A: 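Phenotypic screen: M. tuberculosis growth, glucose 7H9 medium, 3 days; the read-out is not stated. Tested at 50 µM. Direction is inferred from retests: higher values go with more growth inhibition. About 69,000 compounds were tested under these conditions; 1.1% (about 760) showed 50% or more at least once.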
B: 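Growth of Mycobacterium tuberculosis over 4 days (cholesterol / DPPC medium with tyloxapol); the read-out is not stated. Concentration: 50 µM. The record gives no direction; compounds that gave an IC50 in retests scored well above the rest, so higher reads as more growth inhibition. About 69,000 compounds were tested under these conditions; 0.54% (about 370) showed 50% or more at least once.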

Values are the deposited “Percent Effect”, in %. The record does not define 0% and 100%; most values in the screen are far below 50% and negative numbers occur (in some assays of this library far below -100). This is an unselected part of the compounds tested. Two or more numbers in one place are separate tests of the same structure; such repeats can differ widely.

SMILES,A,B
O=C(NCCCc1ccccn1)c1cn(CCN2CCNCC2)nn1,-33.04,-24.5
CCn1cnnc1CNC(=O)N(C)Cc1ccc(F)c(F)c1,19.97,17.22
COc1c(CNCCC(=O)Nc2cccc(C)n2)c(C(C)C)nn1C,-4.057 & -19.56,-14.52
CCN1CCN(C(=O)c2cccc(CN3CCOCC3)c2)CC1,5.404,8.951
O=C(NCCCc1nc(=O)[nH][nH]1)Nc1ccc(Cl)cc1,-1.192,2.089
O=S1(=O)N(c2ccccc2)C[C@H](O)[C@]12CCNC2,9.028,-0.4134
F[C@@H]1CN(CC2CC2)C[C@@H]1OCc1nc2ncccc2[nH]1,16.97 & -10.77,-13.14
Cc1nccn1CC1CCN(C(=O)Cc2ccccc2)CC1,-3.104,-19.87
COC(=O)c1cc(C)nc(N2CCN(Cc3ccn(C(C)C)c3)CC2)n1,-6.708 & -0.5383,10.96
c1cnc(-c2nc(CN3CCN(CC4CC4)CC3)cs2)nc1,-8.333,4.511
Cc1nn(C)cc1C1=NS(=O)(=O)N(C)C(C(=O)Nc2ccc(Cl)cc2)=C1,-3.284,-15.63
COc1cc(C(C)=O)ccc1OCC(=O)N(Cc1ccsc1)C1CC1,-19.96,3.474 & -9.108
O=C(Cc1c[nH]c2ccccc12)N1CCC(Nc2cccnn2)CC1,-1.234,-4.144
CC1CCCN(Cc2ccnc(-c3cccnc3)n2)C1.O=C(O)CC(O)(CC(=O)O)C(=O)O (centres undefined),5.792,-9.583
c1ccc2c(c1)CCN(c1nc(N3CCOCC3)c3nn[nH]c3n1)C2,-35.51 & -4.977,-15.8
Cc1noc(C)c1C(=O)NCCN1CCOCC1,-12.3,-12.59
NCC1Cc2cc(Oc3cc(F)c(CN4CCCC4)c(F)c3)ccc2O1 (centres undefined),48.57 & 21.43,17.56
O=C(CN1CC(c2nc(C3CC3)no2)C1)NCc1ccc(F)cc1.O=C(O)C(=O)O,19.02,10.38
CCSc1cc(C(=O)NCCNC(=O)N(C)C)ccn1,-36.3,-1.295
Cc1cc2nc(C(C)C)cc(NCCc3cccn3C)n2n1,53.2,10.53
C[C@@H]1CN(C(=O)c2nc3sccn3c2-c2ncc[nH]2)C[C@H](C)O1,-31.29,-10.92
O=C(NS(=O)(=O)c1c(Cl)cccc1Cl)c1cccc2c1OCCO2,-1.12,-15.03
CCCS(=O)(=O)N1CCC(NCc2c(C)nn(C)c2OC)CC1,25.7,14.9
CNC(=O)CS(=O)(=O)C1CCN(S(=O)(=O)c2ccccc2Cl)CC1,-27.44,-14.68
CC(C)(C)c1ccc2c(c1)CCN2C(=O)c1[nH]c(=O)[nH]c(=O)c1N,-7.451,-13.56
O=C(O)C(F)(F)F.O=C(O)C(F)(F)F.O=C1CC2(CCN(Cc3cccnc3)C2)CN1c1cccc(F)c1 (centres undefined),-2.974 & 11.1,14.8 & 7.641
O=C(c1ccc(-n2cnnc2)cc1Cl)N1CCCC2(CCNC2)C1 (centres undefined),-22.68 & -2.402,30.47
Cc1noc(C2CCCCN2C(=O)C2CCN(C(C)C)CC2)n1 (centres undefined),-35.1,-19.86
c1cnnc(N2CCCC2CNCc2cnc(N3CCCC3)nc2)c1 (centres undefined),-24.39,-9.687
N#CC1CCCN(c2ncnc3c2CCN(Cc2ccccc2)CC3)C1 (centres undefined),11.87,-6.103
COC1CCCOC12CCN(C(=O)NCCc1cccs1)CC2 (centres undefined),-8.066,14.52
Cl.c1cnc(Nc2cncc(C3CCCN3)n2)cn1 (centres undefined),-17.7,15.79 & 3.846
O=C(c1cncc(N2CCC3(CCNCC3)CC2)n1)N1CCCC1,-9.36,-22.17
CCc1nc(C2CCCN(C(=O)NC(C)C)C2)no1 (centres undefined),1.352,-9.422
c1ccc(Cn2ccnc2CN2CCOC(Cn3cccn3)C2)cc1 (centres undefined),-35.02,-18.7
O=C1CNc2ncnc(N3CCN(Cc4ccccc4)CC3)c2N1,10.84,2.349
[H][C@@]12COC[C@]1(COCC1CC1)CN(S(=O)(=O)c1cccc(F)c1)C2,2.828 & 9.822,-16.85
Cc1cccc(C(=O)N2CCCN(CCc3scnc3C)CC2)c1,30.14,-1.855
CCN(CC)Cc1cn2c(n1)CN(C(=O)c1cc(C)on1)CC2.O=C(O)C(F)(F)F,-16.5,-9.784
COCc1ccc(C(=O)N2CCCN(Cc3cscn3)CC2)cc1,-9.52,-7.02
CC1CCN(c2cncc(CCC3CCCN3)n2)CC1.Cl (centres undefined),17.54,39.23 & 32.25
Cc1cnn(CC2CCCN2C(=O)c2cnc3n[nH]c(C)c3c2)c1 (centres undefined),-30.59,-14.18
CC1(C)CN(CC(F)(F)F)CCN1CC(=O)NC1CCCC1,7.843,-2.682
Cc1ccc(C(=O)NCCN2CCOCC2)c(=O)[nH]1,23,3.861
CN(Cc1nnc2n1CCC2)C(=O)Cc1ccc2c(c1)CCC2,-1.755,-8.013
CN1C(=O)CC(C(=O)O)C12CCN(Cc1ccc(Cl)cc1F)CC2 (centres undefined),-2.588,-24.75
CC(C)c1n[nH]c(C2CN(C(=O)C3=COCC3)CCO2)n1 (centres undefined),0.6756,2.961
CN(Cc1ccc(C(=O)Nc2sccc2C#N)cc1)Cc1ccno1,-38.07,-13.33 & -15.69
CC(C)C(C)NC(=O)c1cccn1Cc1cccnc1 (centres undefined),6.221,3.4
NC(=O)C1CCCN1CCCc1ccc(C(F)(F)F)cc1 (centres undefined),-24.65 & 13.11,-0.4371
CC(C)c1nc2c(n1C)CCN(Cc1nc(-c3ccoc3)no1)C2,30.01 & 0.5965,4.344
Cc1nn(C)c(C)c1-c1ccnc(N(C)Cc2nc(C(C)C)no2)n1,14.36,-13.43
COc1ccc(C2CCCN2c2cnccn2)c(OC)c1 (centres undefined),-28.54,-22.81

5 of the entries, repeated:

Cc1nn(C)c(C)c1-c1ccnc(N(C)Cc2nc(C(C)C)no2)n1 gave A: 14.36%; B: -13.43%.
c1cnnc(N2CCCC2CNCc2cnc(N3CCCC3)nc2)c1 (centres undefined) gave A: -24.39%; B: -9.687%.
Cc1cc2nc(C(C)C)cc(NCCc3cccn3C)n2n1 gave A: 53.2%; B: 10.53%.
CN1C(=O)CC(C(=O)O)C12CCN(Cc1ccc(Cl)cc1F)CC2 (centres undefined) gave A: -2.588%; B: -24.75%.
O=C(NCCCc1ccccn1)c1cn(CCN2CCNCC2)nn1 gave A: -33.04%; B: -24.5%.